In PubChem BioAssay AID2685 (National Center for Advancing Translational Sciences (NCATS), 2010):
This is one part of the list. Further columns of the screen follow, without active or inactive calls. The list favours compounds with an active or inconclusive main result. Words in brackets tell the shape of the fitted curve; partial curves, single points and poor fits give uncertain potencies.

Assay: qHTS Assay for Lipid Storage Modulators in Drosophila S3 Cells;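 as to cell number change: cells counted by Cell Tracker Red CMTPX staining in the red channel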
Conditions: BODIPY lipid droplet fluorescence, 18-24 h; for cell number change: measured here: cell count max response, cells fed with added oleic acid
Procedure, shortened: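 Laser-scanning cytometry quantifies lipid droplet accumulation (500–530 nm total intensity; droplet/cell object ratio) in oleic acid-fed (400 uM added) Drosophila S3 cells treated with a concentration series. 20 uM Triacsin C defined 100% inhibition.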

[1] = measured here: lipid fluorescence (Fed channel) AC50, cells fed with added oleic acid
[2] = measured here: cell number channel AC50, cells fed with added oleic acid

| Compound | cell number change | AC50 [1] | AC50 [2] |
| --- | --- | --- | --- |
| CC(C)(C)NC(=O)C(c1ccc(O)cc1)N(C(=O)CCC(=O)Nc1nccs1)c1ccccc1F (centres undefined) | -7.61% | 0.651 µM [falling, full curve] |  |
| Cc1ccccc1NC(=O)CSc1nc(=O)n(CCN2CCOCC2)c2c1CCCC2 | 3.11% | 1.3 µM [falling, full curve] | 0.731 µM [falling, full curve, poor fit] |
| O=C(NCc1ccccc1F)c1ccc2c(c1)OCO2 |  | 5.8 µM [rising, partial curve, poor fit] | 0.0326 µM [rising, full curve, poor fit] |
| Cc1ccnc(OC(C(=O)O)C(OCCc2ccccc2)(c2ccccc2)c2ccccc2)n1 (centres undefined) | -31.5% | 8.2 µM [falling, partial curve] | 20.6 µM [falling, single point] |
| COc1cccc(OCc2cc(C(=O)N3CCN(C(=O)c4ccco4)CC3)no2)c1 |  | 1.46 µM [rising, partial curve] |  |
| COc1cccc(C2CC(c3ccccc3)n3ncnc3N2)c1 (centres undefined) | 46.5% | 23.1 µM [rising, single point] | 20.6 µM [rising, single point] |
| O=C(COC(=O)Cc1ccsc1)NC1CCCCCC1 | -2.71% | 29.1 µM [falling, single point] |  |
| O=S(=O)(Nc1cc(S(=O)(=O)N2CCOCC2)ccc1N1CCOCC1)c1ccc2c(c1)OCCO2 | -38% |  | 0.517 µM [falling, partial curve, poor fit] |
| COc1ccc(N2C(=O)CCC(C(=O)N3CCCCCC3)C2c2ccc(OC)c(OC)c2)cc1 (centres undefined) | -15.6% | 6.51 µM [rising, partial curve, poor fit] |  |
| COCCOC(=O)c1[nH]c2c(c1C)C(=O)CC(c1ccc(N(C)C)cc1)C2 (centres undefined) | -7.75% | 0.82 µM [rising, partial curve] | 1.3 µM [rising, partial curve] |
| CCOC(=O)c1ccc(NC2c3ccccc3C(=O)N2c2cccnc2)cc1 (centres undefined) | 0.179% | 6.51 µM [rising, single point] |  |
| Cc1ccc2cc(C)c(SCC(=O)NCC3CCCO3)nc2c1 (centres undefined) | 13.5% |  |  |
| COC(=O)[C@H](Cc1ccccc1)NC(=O)[C@@]1(C)C[C@@H]1[C@@H](NC(=O)OCc1ccccc1)c1ccccc1 | -22.3% | 5.8 µM [falling, partial curve] |  |
| COc1ccc(C2C(C(=O)Nc3ccc(OC)c(OC)c3)c3ccccc3C(=O)N2C)cc1 (centres undefined) | 96.4% | 10.3 µM [rising, partial curve] | 4.61 µM [rising, partial curve] |
| CCOC(=O)c1cccnc1SCc1cc(=O)n2ccccc2n1 | 4.65% | 3.66 µM [rising, full curve, poor fit] |  |
| COc1ccccc1CNC(=O)c1oc2ccc(S(=O)(=O)N3CCOCC3)cc2c1C |  | 29.1 µM [falling, partial curve] |  |
| CC(=O)N1CCc2c(sc(NC(=O)Cc3ccccc3)c2C#N)C1 | -10.9% | 29.1 µM [falling, partial curve, poor fit] |  |
| Cc1ccc(CNC(=O)CSc2nc(C)cs2)cc1 | 27.5% | 29.1 µM [rising, single point] |  |
| Cc1cnc(C(=O)OCc2ccc(COC(=O)c3cnc(C)cn3)cc2)cn1 | 0.261% |  |  |
| CCOC(=O)C1CCCN(C(=O)C2CCCN(S(=O)(=O)c3ccc4c(c3)oc(=O)n4C)C2)C1 (centres undefined) | -12.5% |  |  |

| Compound | cell number change | AC50 [1] | AC50 [2] |
| --- | --- | --- | --- |
| O=C(Nc1cccnc1)c1cc2cc(Br)ccc2oc1=O | 39.3% |  | 4.61 µM [rising, full curve] |
| Cc1c(NC2=CC(=O)CC(C)(C)C2)ccc([N+](=O)[O-])c1C | 17% |  |  |
| C=CCCC(=O)NC1CC(C)(C)Cc2c1cnn2-c1ccc(OC)cc1 (centres undefined) | 0.525% | 6.51 µM [falling, single point] |  |
| CNC(=O)CN(Cc1ccccc1)S(=O)(=O)c1ccc(Cl)cc1 | -5.77% | 0.58 µM [rising, single point] |  |
| O=C(c1ccc(-n2cccc2)cc1)N1CCOCC1 | -15.5% | 0.326 µM [falling, full curve, poor fit] |  |
| CC1Cc2ccccc2N1C(=O)CSc1ncccc1C(=O)O (centres undefined) | -25.2% | 4.11 µM [falling, full curve] | 0.146 µM [falling, full curve] |
| CCn1c(NC(=O)c2ccccc2)c(-c2cccs2)c(=O)c2ccccc21 | 49.1% | 29.1 µM [rising, single point] | 29.1 µM [rising, single point] |
| CCCCC(=O)Nc1cccc(NC(=O)c2ccccc2Br)c1 | 59.2% | 6.51 µM [rising, single point] | 23.1 µM [rising, single point] |
| COc1ccc(NC(=O)CC(C)C)c(OC)c1 |  | 0.0058 µM [falling, full curve, poor fit] | 2.91 µM [falling, single point] |
| CCN(CC)c1ccc2c(C)c(CN3CCOCC3)c(=O)oc2c1 | 15.3% | 23.1 µM [rising, single point] |  |
| COc1ccc(/C=C/C(=O)N[C@H](C(=O)O)C(C)C)cc1 | -21.7% |  | 0.58 µM [rising, full curve] |
| CCN1CCCC1CNC(=O)c1cc2c(-c3ccc(Cl)cc3)nn(C)c2s1 (centres undefined) |  | 4.11 µM [falling, single point] | 6.51 µM [falling, single point] |
| CC(C)(C)OC(=O)N1CCC[C@@H]1C(=O)N1CCC(C(=O)O)CC1 | 3.08% | 5.8 µM [falling, single point] |  |
| O=C1C2C3CCC(C3)C2C(=O)N1CNc1ccccc1 (centres undefined) | -22% | 0.411 µM [falling, full curve, poor fit] |  |
| CC1CCN(CCCNC(=O)CN2C(=O)CSc3ccc(S(=O)(=O)N4CCCCC4)cc32)CC1 | 6.26% |  |  |
| O=S(=O)(Cc1ccccc1)N1CCC(N2CCN(c3ccccc3)CC2)CC1 | -17.3% | 0.259 µM [rising, full curve, poor fit] |  |
| O=C(CNC(=O)c1ccccc1F)NCCc1ccc(Cl)cc1 | -2.56% |  |  |
| CCOc1ccc(CCNC(=O)COC(=O)/C=C/c2ccc(C)o2)cc1OCC | -48.5% |  | 2.06 µM [falling, full curve] |
| COc1cc(OC)nc(NC(=S)NC(=O)c2ccccc2)n1 | 4.19% | 3.26 µM [falling, single point] |  |
| COc1ccccc1NS(=O)(=O)c1ccc(C)c(NC(=O)C2CCCO2)c1 (centres undefined) | -12.1% | 23.1 µM [falling, partial curve, poor fit] |  |

| Compound | cell number change | AC50 [1] | AC50 [2] |
| --- | --- | --- | --- |
| CN1CCN(C(=S)c2cn(Cc3ccccc3)c3ccccc23)CC1 | 19.7% |  |  |
| CCc1cccc(C)c1NC(=O)C1=C(C(=O)O)CCCC1 | 4.72% | 29.1 µM [rising, single point] |  |
| O=C(NCc1ccccc1C(F)(F)F)C1CC(c2ccccc2C(F)(F)F)=NO1 (centres undefined) | 1.31% | 1.64 µM [rising, full curve, poor fit] |  |
| CCC(CC)c1nnc(NC(=O)C2CC(=O)N(C3CCCC3)C2)s1 (centres undefined) | 12.2% | 29.1 µM [rising, single point] |  |
| CCCCS(=O)(=O)N1CCCC(C(=O)Nc2ccc(Cl)cn2)C1 (centres undefined) | 6.99% | 0.0366 µM [rising, full curve, poor fit] |  |
| Cc1ccc2nc(SCn3nnc4ccccc4c3=O)[nH]c2c1 | 4.35% | 0.082 µM [rising, full curve, poor fit] |  |
| C[n+]1ccccc1/C=C/c1ccccc1Cl | 21.1% |  |  |
| O=S(=O)(c1cccs1)N1CCN(c2ccccc2)CC1 | 26.1% | 25.9 µM [falling, single point] | 0.103 µM [rising, full curve, poor fit] |
| Cc1cc(C(C)(C)C)cc(C)c1S(=O)(=O)N1CCN(C(=O)c2cc([N+](=O)[O-])c[nH]c2=O)CC1 | -8.57% | 6.51 µM [rising, partial curve] |  |
| COc1ccc(C(=O)CNc2ccccc2CO)cc1 | 8.04% | 0.103 µM [rising, full curve, poor fit] |  |
| O=C(C(Cl)c1ccccc1)N1CCCC1 (centres undefined) | -10% | 1.16 µM [rising, single point] |  |
| CN(C)/C=C1/C(=O)N(c2ccc([N+](=O)[O-])cc2)N=C1c1ccccc1 | -9.73% | 29.1 µM [rising, partial curve, poor fit] |  |
| S=C(NCCCN1CCOCC1)NC1CCCC1 | -19.3% |  |  |
| COc1ccc([C@@H]2C(C#N)=C(N)S[C@@H](c3ccccc3)[C@@H]2[N+](=O)[O-])cc1 | -5.17% | 16.4 µM [rising, partial curve, poor fit] |  |
| Cc1cc(C)c2nc(NC(=O)c3ccco3)sc2c1 | -33.3% | 7.31 µM [falling, partial curve] | 11.6 µM [falling, partial curve, poor fit] |
| N#CC1=C2SCN(c3ccccc3)CN2C(=O)CC1c1ccccc1Cl (centres undefined) | 12.8% | 1.16 µM [falling, partial curve] |  |
| CCn1c(SCC(=O)N(C)C2CCS(=O)(=O)C2)nnc1-c1cccs1 (centres undefined) | 17.7% |  |  |
| Cc1ccc(S(=O)(=O)N2[C@@H](c3ccccc3)C(C(=O)O)=CC[C@H]2c2ccc(Cl)cc2)cc1 | -25.8% |  |  |
| COc1cc(/C=C/C(=O)NC(=O)c2ccccc2O)ccc1O |  | 0.146 µM [falling, partial curve, poor fit] |  |

Gathered by group: the entries above with an NH in an aromatic ring (3)

| Compound | cell number change | AC50 [1] | AC50 [2] |
| --- | --- | --- | --- |
| COCCOC(=O)c1[nH]c2c(c1C)C(=O)CC(c1ccc(N(C)C)cc1)C2 (centres undefined) | -7.75% | 0.82 µM [rising, partial curve] | 1.3 µM [rising, partial curve] |
| Cc1ccc2nc(SCn3nnc4ccccc4c3=O)[nH]c2c1 | 4.35% | 0.082 µM [rising, full curve, poor fit] |  |
| Cc1cc(C(C)(C)C)cc(C)c1S(=O)(=O)N1CCN(C(=O)c2cc([N+](=O)[O-])c[nH]c2=O)CC1 | -8.57% | 6.51 µM [rising, partial curve] |  |
